One compound from patent US6812243B2, “Indole derivatives and their use for the treatment of malignant and other diseases based on pathological proliferation” (Zentaris AG, priority 1998, dated 2004) can be followed below.

The structures appear in SMILES notation.

Broadly, the melting point is the temperature of the solid-liquid transition. In turn, `CC(=O)Oc1ccc2[nH]c(C(=O)c3cc4ccccc4[nH]3)cc2c1` [Example 53] had a melting point of 223 to 224 °C.
